Tested on: C57BI/6J mice
Test: Mouse food addiction operant protocol with prebiotics in drinking water
Assay type: in vivo
Details: principal component analysis, position relative to nonaddicted control mice
Protocol: Mice were trained to obtain chocolate-flavored pellets (n=59) in operant boxes during 98 sessions in 1 h-daily self-administration sessions. […] The food addiction-like behavior was evaluated during this operant conditioning maintained by food at a late period (82-92 sessions) to classify mice into the addictive phenotype considering three food addiction-like criteria (1) persistence of response, (2) motivation, and (3) compulsivity. […]
Additionally, four additional phenotypic traits were also evaluated as factors of vulnerability, impulsivity, cognitive inflexibility, appetitive and aversive cue-reactivity. • Impulsivity, the inability to stop a response once it is initiated, was measured as the number of non-reinforced active responses during the time-out period (10 s) after each pellet delivery. […] To signal the change in the schedule, the cue light was presented twice non-contingently and for 4 s. • Aversive cue-reactivity: To study the conditioning to an aversive stimulus (grid floor), non-reinforced active responses during the following session after the shock test were measured. […]

Compound | PCA clustering of addiction criteria and phenotypic traits
OC[C@H]1O[C@@H](O[C@@H]2[C@@H](CO)OC(O)(CO)[C@H]2O)[C@H](O)[C@@H](O)[C@H]1O (stereo partly drawn) [lactulose, 4-O-β-D-galactopyranosyl-D-fructofuranose, reference compound] | cluster close to the nonaddicted control mice
C[C@@H]1OC(O)[C@H](O)[C@H](O)[C@H]1O (stereo partly drawn) [rhamnose, (3R,4R,5R,6S)-6-methyloxane-2,3,4,5-tetrol] | clustered together with the nonaddicted control mice

From patent publication EP4559466A1, “MICROBIOTA SIGNATURE TO DETECT FOOD ADDICTION AND TREATMENT THEREOF” (Universitat Pompeu Fabra (UPF), priority 2023, dated 2025)
